The campaign covered roughly 52,000 sequences. About 210 (0.4%) were called active.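 The calls were made as follows: active = gene whose silencing raises cell survival under the drug, median off-target-corrected z-score across its silencing RNAs 2 or more; inactive = the rest.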 This is one part of the list.
experiment: Resistance to Poly (ADP-Ribose) Polymerase inhibitor: Gene Identification via Genome-wide siRNA Screen; conditions: mouse BRCA2 R2336H ES cells, olaparib, CellTiter-Glo viability; active compounds read high
Method in brief: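 Mouse BRCA2 R2336H ES cells were reverse-transfected with siRNA (20 nM final), treated at 48 h with 500 nM olaparib, and read by CellTiter-Glo after 72 h. Scores: MAD-based z per siRNA, median per gene, seed off-target correction.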

| Sequence | z-score |
| --- | --- |
| CCUCAUUUCCAAACUCAAATT against E330017E16 | inactive: 1.39 |
| GGUGGUGUAUUCUUUUUGATT against Ube2d3 | inactive: -1.73 |
| GCUCCAAGUGUUAAAAGAGTT against Eif2ak1 | inactive: 0.0571 |
| CCUGUCGUUCCUCCUUACATT against Spc18 | inactive: -0.61 |
| GGAUUGUUUGUCGAGUUUATT against Mknk2 | inactive: 0.713 |
| GGCCCAAGGAAUAAUCAAGTT against Satb2 | inactive: 0.743 |
| CGGUAACUGAGUCAGUUGUTT against 2310061J03Rik | inactive: 0.638 |
| GGAUGUGAUGACUCAUUUUTT against Arch | inactive: 1.09 |
| GCAGUGAGACUUUUAAUAGTT against Snx17 | inactive: 0.871 |
| CGUUCGAGUUGCUGAGCAUTT against Dyrk2 | inactive: 2 |
| GGCGCAAAAGGAAAAAAAGTT against 2700075B01Rik | inactive: 0.611 |
| GGUUAAGCUACAAAACAACTT against D130060C09Rik | inactive: -1.01 |
| CCAUCACCACUUACCUCUATT against Tesk1 | inactive: -0.845 |
| AGUAACCUGAGACAACACCTT against Zfp50 | inactive: -0.954 |
| GGAGAUCGAAAAGAAUUUCTT against Mx2 | inactive: 0.353 |
| GGUACUGAUUACUCUGUAUTT against Mrps17 | inactive: -1.66 |
| GGCCAAAGUGUUGAAAACATT against Ptger4 | inactive: 0.139 |
| GGUUCUGUCUUUUGGAAGUTT against Gpr21 | inactive: 2.72 |
| GGACCUGUAGCUAGCUUCUTT against Adamts10 | inactive: -0.392 |
| GCCUGUAAGAUACUGUACATT against Bbc3 | inactive: -0.749 |
| GCGGCUCCAUCAGAAAAUGTT against Htatip2 | inactive: -0.967 |
| CCUUGGUGUGCAUUGGAUGTT against Fbxo15 | inactive: -0.437 |

Quoted at random: 3 records from the list, in no set order.

| Sequence | z-score |
| --- | --- |
| CCUUGGUGUGCAUUGGAUGTT against Fbxo15 | inactive: -0.437 |
| CGGUAACUGAGUCAGUUGUTT against 2310061J03Rik | inactive: 0.638 |
| GGCCCAAGGAAUAAUCAAGTT against Satb2 | inactive: 0.743 |

(cont.)

| Sequence | z-score |
| --- | --- |
| GGGAUUCAGAUUCUAUCAGTT against 1700108E19Rik | inactive: 0.963 |
| GUUGGAGGAGAAACUCUGGTT against Hbb-bh1 | inactive: 1.68 |
| GGAUAUAAGUUCCAGUUUGTT against 4833436C18Rik | inactive: -1.51 |
| CGUAAGAUUGACUCUAGUATT against Prlpb | inactive: -0.826 |
| GGACCAUGUACAGGACUUUTT against Thap7 | inactive: -0.848 |
| GCUAUUCAAGUUUAUACGCTT against 4432412D15Rik | inactive: 0.268 |
| CCACCUGACUUUUGGAAGATT against Coro1b | inactive: 0.248 |
| GGAUAUUGAUGUUUCAAGUTT against Neo1 | inactive: 0.476 |
| GGAGCAAAUAGGGUUCAUUTT against Rhox10 | inactive: -1.25 |
| GCUCACCAAGGUCAACUUUTT against BC061212 | inactive: -0.264 |
| GUGACAUCAACUUAAUGGATT against Klra20 | inactive: 2.39 |
| GGGCGUGUCCUUGAAAGAATT against 6030440P17Rik | inactive: -1.46 |
| GGAAGGAGAUAUUGUGUUUTT against Sh3md2 | inactive: 0.0199 |
| CGAUCCAAUGGAUUUCAAGTT against Col3a1 | inactive: -0.0675 |
| GCCAUGGAAAGAGCCUUGATT against AI324046 | inactive: 0.845 |
| GGCUUUUGAGAGCUACCGGTT against Ell | inactive: 0.29 |
| GGCUCUCAUUGAUGCAUGUTT against Cpeb4 | inactive: 0.514 |
| GGCUGUCACCCUACAUGACTT against Ube1x | inactive: -0.283 |
| GGCUAAAACACUUAUCAAUTT against 4921537P18Rik | inactive: -1.85 |
| GGUGAUUUUCGAUAUACACTT against Dclre1b | inactive: 0.328 |
| GGAUGCCAAAGCAGCUCAUTT against Epc1 | inactive: -0.0654 |
| GCUUGAUGACUACCACUGATT against BC011248 | inactive: -0.84 |

| Sequence | z-score |
| --- | --- |
| GGGAGAUCUUGACAAAUUCTT against Aplp1 | inactive: 0.458 |
| GGACAUACGGUUUCAUUGUTT against Ptprv | inactive: -0.879 |
| CCAGCGUGAUAGCUAAGAATT against 4732479N06Rik | inactive: -0.541 |
| CCUUUUUACUUCGAGAUUCTT against Socs4 | inactive: -0.182 |
| GGAAAAGACUAAAAUGCUUTT against Rbm5 | inactive: 0.858 |
| GGUGUCAUGAUGGAGCUGATT against Crygc | inactive: -0.709 |
| GGGCGAGGAAGAAGAAUCUTT against D530031C13Rik | inactive: 0.773 |
| GGUCCCUGCAAAGUAGAAUTT against Olfr1153 | inactive: 1.18 |
| GGAACCUGUGGAGAAGGCUTT against Zfp101 | inactive: 0.554 |
| GGAUGUUGAUUUUCAUGGUTT against Grpel2 | inactive: 0.803 |
| GGCAGUCAGUUUAAAUAAATT against B930067F20Rik | inactive: -1.5 |
| GGAGAAUGCCAAGCAUCGATT against 1500005N04Rik | inactive: -0.789 |
| GACAAUAUCUCUGAAUGGATT against Olfr459 | inactive: -0.307 |
| GGACUAAACAGAUUCACUATT against Rnase9 | inactive: -0.661 |
| GGAAGUCCACGAAACUAAATT against Csh1 | inactive: 0.149 |
| GCUCAGACUGGUCCCUUAATT against Ywhab | inactive: -1.63 |
| GGAUAACUGUAACAGCCCGTT against Ly6g6c | inactive: -0.597 |
| GCUUCUAACUACACAGACUTT against Cd63 | inactive: 0.499 |
| GGUGAUCACUAAACUCCAATT against Msh4 | inactive: -0.0659 |
| GGUGAAGGUGAAACGAUAUTT against Mfap1 | inactive: -2.18 |
| GGGUGCUGAUGGACAAUAATT against Speer3 | inactive: -0.67 |
| GGAAUCACAUCCAGUUGGUTT against Diablo | inactive: 0.946 |

From PubChem BioAssay AID1347423 (Functional Genomics Laboratory (NCATS/FGL), 2020)
